The target of one assay is T1, DDB1b (UniProt O49552).
T1 sequence: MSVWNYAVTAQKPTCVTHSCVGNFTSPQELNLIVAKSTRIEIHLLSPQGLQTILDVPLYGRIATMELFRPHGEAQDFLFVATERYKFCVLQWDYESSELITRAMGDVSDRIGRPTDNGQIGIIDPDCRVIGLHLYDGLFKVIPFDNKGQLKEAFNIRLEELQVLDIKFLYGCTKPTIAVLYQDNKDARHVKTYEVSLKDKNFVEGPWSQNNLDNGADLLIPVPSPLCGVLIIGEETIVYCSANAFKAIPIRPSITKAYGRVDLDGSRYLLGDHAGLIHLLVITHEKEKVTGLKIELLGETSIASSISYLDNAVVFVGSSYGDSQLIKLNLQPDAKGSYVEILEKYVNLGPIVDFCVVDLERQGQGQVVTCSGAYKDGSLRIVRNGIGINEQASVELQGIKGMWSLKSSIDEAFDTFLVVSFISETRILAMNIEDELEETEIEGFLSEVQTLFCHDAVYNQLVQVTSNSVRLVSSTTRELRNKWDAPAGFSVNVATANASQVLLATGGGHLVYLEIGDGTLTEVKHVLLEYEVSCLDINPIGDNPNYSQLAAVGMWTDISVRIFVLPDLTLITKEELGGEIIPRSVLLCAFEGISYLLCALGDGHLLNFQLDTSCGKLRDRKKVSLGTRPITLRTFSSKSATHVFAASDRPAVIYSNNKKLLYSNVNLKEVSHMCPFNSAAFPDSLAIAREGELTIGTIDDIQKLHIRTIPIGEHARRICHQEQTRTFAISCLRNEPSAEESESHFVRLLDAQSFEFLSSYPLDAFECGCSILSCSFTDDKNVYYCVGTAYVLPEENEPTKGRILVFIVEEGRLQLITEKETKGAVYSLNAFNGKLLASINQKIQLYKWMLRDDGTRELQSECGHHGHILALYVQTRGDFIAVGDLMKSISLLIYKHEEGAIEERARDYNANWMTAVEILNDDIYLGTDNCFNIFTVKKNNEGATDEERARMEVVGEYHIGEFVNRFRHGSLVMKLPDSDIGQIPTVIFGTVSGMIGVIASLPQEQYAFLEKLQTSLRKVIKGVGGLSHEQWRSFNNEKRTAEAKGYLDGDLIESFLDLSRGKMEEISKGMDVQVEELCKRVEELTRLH
The experiment in a line: two-hybrid; yeast two-hybrid assay; bait, prey and conditions not told.

Another assay has as its target T2, DDB1a (UniProt Q9M0V3).
T2 sequence: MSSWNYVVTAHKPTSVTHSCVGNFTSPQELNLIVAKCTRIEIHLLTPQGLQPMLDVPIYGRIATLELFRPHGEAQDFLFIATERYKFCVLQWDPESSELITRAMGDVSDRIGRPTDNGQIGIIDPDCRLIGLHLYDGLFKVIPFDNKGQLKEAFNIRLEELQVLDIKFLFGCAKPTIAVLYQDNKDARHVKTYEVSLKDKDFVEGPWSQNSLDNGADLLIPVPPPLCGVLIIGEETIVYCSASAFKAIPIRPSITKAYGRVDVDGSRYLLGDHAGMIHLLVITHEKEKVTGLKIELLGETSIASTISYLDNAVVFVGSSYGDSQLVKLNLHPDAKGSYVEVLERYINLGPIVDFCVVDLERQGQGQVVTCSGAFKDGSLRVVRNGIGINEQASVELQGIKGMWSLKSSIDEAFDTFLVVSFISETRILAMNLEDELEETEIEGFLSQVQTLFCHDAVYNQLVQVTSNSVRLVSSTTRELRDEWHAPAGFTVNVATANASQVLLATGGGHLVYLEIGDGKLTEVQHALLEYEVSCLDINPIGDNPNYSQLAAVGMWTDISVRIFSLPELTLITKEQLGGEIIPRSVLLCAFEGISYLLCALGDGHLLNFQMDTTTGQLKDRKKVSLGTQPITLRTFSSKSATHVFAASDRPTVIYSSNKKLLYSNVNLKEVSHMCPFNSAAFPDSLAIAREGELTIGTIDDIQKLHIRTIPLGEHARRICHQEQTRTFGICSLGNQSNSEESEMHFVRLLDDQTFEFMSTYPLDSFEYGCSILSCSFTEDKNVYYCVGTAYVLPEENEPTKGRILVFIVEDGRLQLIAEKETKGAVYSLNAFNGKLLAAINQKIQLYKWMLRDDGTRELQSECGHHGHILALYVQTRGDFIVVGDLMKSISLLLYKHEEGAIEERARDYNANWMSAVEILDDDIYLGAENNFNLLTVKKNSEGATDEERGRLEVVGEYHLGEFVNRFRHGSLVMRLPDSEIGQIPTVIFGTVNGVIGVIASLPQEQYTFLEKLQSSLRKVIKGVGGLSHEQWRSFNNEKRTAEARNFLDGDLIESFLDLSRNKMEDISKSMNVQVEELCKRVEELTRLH
The description is as above.

No constants are given. Whether binding was seen depends on the method and setting.

Regarding “YAO WD-repeat domain (Arabidopsis thaliana) (domain or fragment)”, the binding result in the assay with DDB1b and in the assay with DDB1a was “no binding” in each case.

Source of the values: publication PMC3095302.
